Laboratory results taken from paper PMC9112550, “Optimization of the antimicrobial peptide Bac7 by deep mutational scanning” (BMC Biology, 2022).

Legend:
E. coli TOP10 [1] = test: Deep mutational scanning, site-saturation Bac7_1-23 library, intracellular self-screening with NGS; format: cell-based; settings: site-saturation library, 156,779 variants; rank 1 = most active
Protocol: A focused strategy was pursued to generate diversity at positions 5, 18, 19, and 20 in the Bac7_1-23 peptide. […] Degeneration was introduced by using the QuikChange technique, amplifying the pBAD plasmid containing the Bac7_1-23 gene using a mixture of 20 oligonucleotides (Additional file 1: Table S1) at a final concentration of 0.3 μM and Phusion® High-Fidelity PCR Master Mix in HF buffer. The amplification was performed using 20 cycles of 98°C for 10 s, 60°C for 15 s, and 72°C for 10 s. The PCR product was treated with the enzyme Dpn1 to remove the template plasmid and subsequently purified. The purified product was used to transform 20 μl of CloneCatcher™ Gold DH5G Electrocompetent E. coli (Genlantis, Burlington, USA) cells using electroporation.
To assess the antimicrobial activity of multiple peptides in parallel when expressed intracellularly in E. coli TOP10, previously prepared aliquots containing E. coli plasmid libraries created by either random mutagenesis or site-saturation mutagenesis were used. For both approaches, three aliquots containing approximately 500 million cells each of E. coli TOP10 harboring peptide-encoding DNA sequences on the pBAD plasmid were thawed and added to three 1-l baffled shake flasks containing 100 ml of LB medium + 100 μg ml^−1 carbenicillin. The cultures were grown for roughly 7 h at 37°C.

E. coli TOP10 [2] = test: Deep mutational scanning, epPCR (randomly mutagenized) Bac7_1-23 library, intracellular self-screening with NGS; format: cell-based; settings: epPCR library, 601,551 variants; rank 1 = most active; qualitative measure

Sequence | Rank by antimicrobial activity (E. coli TOP10 [1]) | Rank by antimicrobial activity (E. coli TOP10 [2])
RRIRKRPPRLPRPRPRPYSNPRP [site-saturation library peptide ID 98068] | 2 | –
RRIRPRPPRLPRPRPRTLLFPWP [epPCR library peptide ID 294002] | – | 4
